Source: PubChem BioAssay AID1508597 (Cure First, 2020)

- Purpose: 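Survival screen with siRNA in ovarian cancer cells derived from patients, with or without rucaparib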 (primary screen)
- System: human ovarian carcinoma lines grown from tumours: OCI-P5x (papillary serous) and OCI-C5x (clear cell)
- Reagents: siRNA pool against human genes, 1.25 pmol siRNA per well
- Timing: 72 h or 96 h, depending on the cell culture
- Conditions: rucaparib 20 µM (about IC30) or vehicle, present until read-out
- Rucaparib or vehicle: Rucaparib
- Cell line: OCI-P5x (serous)
- Read-out: 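Luminescent ATP-based viability assay read 72 or 96 h after transfection, depending on culture, given as normalised percent viability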
- Reading the numbers: viability, normalised: higher = more viable cells remaining
- Call rule: 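Active when normalised viability falls below 80 percent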
- Meaning of the calls: active = viability under 80%; inactive = viability 80% or more
Shown is a random part of the about 2,100 reagents, in one setting of the screen. 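Calls flag viability under 80% in either arm, not effects specific to rucaparib; the reference for percent is not stated.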 Some reagents were tested in more than one well and are listed for each. The record does not give: the 100% reference.

gene	technical replicate	viability, normalised (%)	Outcome
WIZ (WIZ zinc finger)	1	69.1	active
WIZ (WIZ zinc finger)	2	55.6	active
WIZ (WIZ zinc finger)	3	62.6	active
BCOR (BCL6 corepressor)	1	71.8	active
BCOR (BCL6 corepressor)	2	84.6	inactive
BCOR (BCL6 corepressor)	3	90.7	inactive
SLIT3 (slit guidance ligand 3)	1	71	active
SLIT3 (slit guidance ligand 3)	2	54.2	active
SLIT3 (slit guidance ligand 3)	3	61.8	active
PIK3CG	1	72.2	active
PIK3CG	2	105	inactive
PIK3CG	3	99.9	inactive
CLDN16 (claudin 16)	1	52	active
CLDN16 (claudin 16)	2	42.7	active
CLDN16 (claudin 16)	3	52.9	active
AGRN (agrin)	1	57.8	active
AGRN (agrin)	2	61.6	active
AGRN (agrin)	3	64.7	active
AFF3 (ALF transcription elongation factor 3)	1	74.6	active
AFF3 (ALF transcription elongation factor 3)	2	70.7	active
AFF3 (ALF transcription elongation factor 3)	3	65.4	active
CD79A (CD79a molecule)	1	72.8	active
CD79A (CD79a molecule)	2	65.7	active
CD79A (CD79a molecule)	3	59.9	active

A run of entries taken from the entries so far:
gene	technical replicate	viability, normalised (%)	Outcome
AGRN (agrin)	1	57.8	active
AGRN (agrin)	2	61.6	active
AGRN (agrin)	3	64.7	active
AFF3 (ALF transcription elongation factor 3)	1	74.6	active
AFF3 (ALF transcription elongation factor 3)	2	70.7	active
AFF3 (ALF transcription elongation factor 3)	3	65.4	active
CD79A (CD79a molecule)	1	72.8	active
CD79A (CD79a molecule)	2	65.7	active

Further entries follow:
gene	technical replicate	viability, normalised (%)	Outcome
DPY30 (dpy-30 histone methyltransferase complex regulatory subunit)	1	62.6	active
DPY30 (dpy-30 histone methyltransferase complex regulatory subunit)	2	63.7	active
DPY30 (dpy-30 histone methyltransferase complex regulatory subunit)	3	70.3	active
UBE2A (ubiquitin conjugating enzyme E2 A)	1	58.7	active
UBE2A (ubiquitin conjugating enzyme E2 A)	2	73.6	active
UBE2A (ubiquitin conjugating enzyme E2 A)	3	60	active
NQO2 (N-ribosyldihydronicotinamide:quinone dehydrogenase 2)	1	77.5	active
NQO2 (N-ribosyldihydronicotinamide:quinone dehydrogenase 2)	2	85.2	inactive
NQO2 (N-ribosyldihydronicotinamide:quinone dehydrogenase 2)	3	83.6	inactive
NUP98 (nucleoporin 98 and 96 precursor)	1	37.9	active
NUP98 (nucleoporin 98 and 96 precursor)	1	55	active
NUP98 (nucleoporin 98 and 96 precursor)	2	51.5	active
NUP98 (nucleoporin 98 and 96 precursor)	2	33.7	active
NUP98 (nucleoporin 98 and 96 precursor)	3	54.5	active
NUP98 (nucleoporin 98 and 96 precursor)	3	35.9	active
RAI1 (retinoic acid induced 1)	1	45.2	active
RAI1 (retinoic acid induced 1)	2	53.9	active
RAI1 (retinoic acid induced 1)	3	50.4	active
LPA (lipoprotein(a))	1	61	active
LPA (lipoprotein(a))	2	58.8	active
LPA (lipoprotein(a))	3	73.7	active
RASA3 (RAS p21 protein activator 3)	1	66.9	active
RASA3 (RAS p21 protein activator 3)	2	68.8	active
RASA3 (RAS p21 protein activator 3)	3	73.8	active
AKT1 (AKT serine/threonine kinase 1)	1	80.6	inactive
AKT1 (AKT serine/threonine kinase 1)	2	88.1	inactive
AKT1 (AKT serine/threonine kinase 1)	3	79.3	active
TLK2 (tousled like kinase 2)	1	62.3	active
TLK2 (tousled like kinase 2)	1	103	inactive
TLK2 (tousled like kinase 2)	2	85	inactive
TLK2 (tousled like kinase 2)	2	48.5	active
TLK2 (tousled like kinase 2)	3	54	active
TLK2 (tousled like kinase 2)	3	78.2	active
